B1: EpCAM-YFP (protein, UniProt P16422 24-314)
chain: QEECVCENYKLAVNCFVNNNRQCQCTSVGAQNTVICSKLAAKCLVMKAEMNGSKLGRRAKPEGALQNNDGLYDPDCDESGLFKAKQCNGTSMCWCVNTAGVRRTDKDTEITCSERVRTYWIIIELKHKAREKPYDSKSLRTALQKEITTRYQLDPKFITSILYENNVITIDLVQNSSQKTQNDVDIADVAYYFEKDVKGESLFHSKKMDLTVNGEQLDLDPGQTLIYYVDEKAPEFSMQGLKAGVIAVIVVVVIAVVAGIVVLVISRKKRMAKYEKAEIKEMGEMHRELNA
B2: EpCAM-YFP defective for Claudin-7 binding (protein, UniProt P16422 24-314)
chain: B1 chain with A255I, G259I
B3: EpCAM-YFP mutated in matriptase cleavage and dimerization domain (protein, UniProt P16422 24-314)
chain: B1 chain with R57E, R58E

Where a chain is given by its changes, count along the chain named. No constants are given. Whether binding was seen depends on the method and setting. Binding seen in cells or lysates may run through a third protein. A result given as binding can be weak or reduced; the word gives no strength. Sequences can lack the tags named with a protein.

The assay addresses Claudin-7 (dog (endogenous in MDCK)). Nature of the assay: co-IP; Claudin-7 immunoprecipitated with rabbit anti-Claudin-7 antibody and Protein A Sepharose from MDCK cell line lysates (10 mM Tris-HCl pH 7, 140 mM NaCl, 300 mM sucrose, 0.5% Triton-X-100), 16 hours at 4°C; immunoblotted for EpCAM, YFP and Claudin-7. Background: A western blot detects proteins with antibodies after separation by electrophoresis.
Take B1: the binding entry is reported as “binds”. The same measure for B2: “no binding”; for B3: “binds”.

The values above are taken from publication PMC6179577.
